# Experimental data as given in US20190241653A1 (NATIONAL RESEARCH COUNCIL OF CANADA, published 2019).
# These are yes or no findings as the source states them, for the method shown. Some results given as binding are weak or reduced against the parent protein; the word gives no strength.
# T1: receptor(s) of FC5 on HBEC-D3 cells (human microvascular brain endothelial cells) (human) (UniProt Q9NV96)
# T1 sequence (looked up): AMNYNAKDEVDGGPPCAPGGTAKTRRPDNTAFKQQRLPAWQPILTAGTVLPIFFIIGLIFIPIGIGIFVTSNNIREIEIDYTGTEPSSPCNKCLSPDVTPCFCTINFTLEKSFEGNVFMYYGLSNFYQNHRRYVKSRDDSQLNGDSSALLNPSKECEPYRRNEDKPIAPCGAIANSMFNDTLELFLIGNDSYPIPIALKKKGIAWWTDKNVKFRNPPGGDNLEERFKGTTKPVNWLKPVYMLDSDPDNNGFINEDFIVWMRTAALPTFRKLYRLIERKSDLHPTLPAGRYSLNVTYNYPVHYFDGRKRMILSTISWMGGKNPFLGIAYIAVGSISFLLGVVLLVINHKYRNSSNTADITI
# Molecular target: T1, receptor(s) of FC5 on HBEC-D3 cells (human microvascular brain endothelial cells) (human)
# Test: Mirrorball microplate cytometry on HBEC-D3 cells
row,binding,Binder
1,binds,"FC5-H3 (VHH, Humanized variant of FC5, expressed with His5 and c-myc tags; not shown: His5 and c-myc tags) VHH: EVQLVESGGGLVQPGGSLRLSCAASGFKITHYTMGWFRQAPGKGLEFVSRITWGGDNTFYSNSVKGRFTISRDNSKNTVYLQMNSLRAEDTAVYYCAAGSTSTATPLRVDYWGQGTLVTVSS"
2,binds,"FC5-H2 (VHH, Humanized variant of FC5, expressed with His5 and c-myc tags; not shown: His5 and c-myc tags) VHH: EVQLVESGGGLVQPGGSLRLSCAASGFKITHYTMGWVRQAPGKGLEWVSRITWGGDNTFYSNSVKGRFTISRDNSKNTVYLQMNSLRAEDTAVYYCAAGSTSTATPLRVDYWGQGTLVTVSS"
3,binds,"FC5-H1 (VHH, Humanized variant of FC5, expressed with His5 and c-myc tags; not shown: His5 and c-myc tags) VHH: EVQLVESGGGLVQPGGSLRLSCAASGFKITHYTMGWVRQAPGKGLEWVSRITWGGDNTFYSNSVKGRFTISRDNSKNTLYLQMNSLRAEDTAVYYCAAGSTSTATPLRVDYWGQGTLVTVSS"

row,Binder,binding
1,"FC5-H7 (VHH, Humanized variant of FC5, expressed with His5 and c-myc tags; not shown: His5 and c-myc tags) VHH: EVQLVESGGGLVQPGGSLRLSCAASGFKITHYTMGWFRQAPGKEREFVSRITWGGDNTFYSNSVKGRFTISRDNSKNTLYLQMNSLRAEDTAVYYCAAGSTSTATPLRVDYWGQGTLVTVSS",binds
